Test results from PubChem BioAssay AID602313 (National Center for Advancing Translational Sciences (NCATS), 2012).
The campaign covered roughly 390,000 compounds. About 760 (0.19%) were called active. The inconclusive results got no clear call from the source; some entries with a clear call stand among them for comparison. Calls follow the shape of the dose curve; as a rule, active = well fitted inhibition curve with a large enough effect; inconclusive = small, poorly fitted or top-dose-only effect; inactive = flat fitted curve, though single readings scatter. Where the call is inconclusive, the potency comes from a doubtful curve fit.
Potency is read from the fitted curve at half-maximal effect.

Experiment: qHTS for Inhibitors of Vif-A3F Interactions: qHTS; also: nearly all actives have a fitted effect of over 65% in size
Settings: HeLa A3F-eYFP + Vif (tagged APOBEC3F with the HIV-1 protein that degrades it), YFP fluorescence increase; series mostly up to 46.1 µM
In short: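 HeLa cells stably expressing Vif plus C-terminally eYFP-tagged A3F were seeded, incubated overnight at 37 deg C, dosed with compound, incubated overnight again at 37 deg C. Yellow fluorescence (Ex 488/Em 500-530) reported blocked Vif-mediated A3F-eYFP degradation.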
For CCN(C(=O)c1cc2cc3ccc(C)cc3nc2o1)c1ccc(OC)cc1, the Potency was “inactive”. In the case of Cc1nnc(N2CCCC(C(=O)Nc3cccc(C(F)(F)F)c3)C2)c2nn(-c3ccccc3)c(C)c12 (stereo unspecified), the Potency is reported as inconclusive: 35.5 µM [inhibitor, single point]. In the case of Cc1cccc(C(=O)Nc2cccc(OCc3cc(=O)n4cccc(C)c4n3)c2)c1, the Potency is reported as inconclusive: 3.98 µM [inhibitor, single point]. For COc1ccc2[nH]c(C)c(CCNC(=S)Nc3cccc(C)c3)c2c1, the Potency was “inactive”. In the case of Cc1ccc(C(=O)Nc2nnc(C3=COCCO3)o2)cc1C, the Potency is reported as inconclusive: 31.6 µM [inhibitor, single point]. With CCNC(=S)N/N=C/c1sc(N2CCCCC2)nc1-c1cccs1 the Potency was inconclusive: 5.62 µM [inhibitor, partial curve, poor fit]. For Cc1ccc(C)c(Oc2cc(NC(=O)CCCn3nc(C)c([N+](=O)[O-])c3C)cc([N+](=O)[O-])c2)c1, the Potency was “inactive”. With Cc1cccc(Nc2nnc(SC/C(O)=C(\C#N)c3nc4ccccc4[nH]3)s2)c1 the Potency was active: 22.4 µM. For O=C(N/N=C\c1cn[nH]c1-c1ccc(Cl)cc1)c1cccs1, the Potency was inconclusive: 35.5 µM [inhibitor, single point]. With O=C(NC1CCCCCCC1)c1ccccc1-c1ccccc1 the Potency was inconclusive: 6.31 µM [inhibitor, single point]. With COc1ccccc1N(CC(=O)NCc1ccc(F)cc1)C(=O)CCC(=O)Nc1nccs1 the Potency was inconclusive: 3.16 µM [inhibitor, partial curve, poor fit]. For O=C(CC1Sc2ncnn2C1=O)Nc1ccc(Cl)cc1 (stereo unspecified), the Potency was “inactive”. For CCN1CCN(c2ccc(S(=O)(=O)N3CCCCC3)cc2NC(=O)c2cccc(C)c2[N+](=O)[O-])CC1, the Potency was inconclusive: 22.4 µM [inhibitor, single point]. With O=C1/C(=C\c2c(NCCOCCO)nc3ccccn3c2=O)SC(=S)N1Cc1ccco1 the Potency was inconclusive: 17.8 µM [inhibitor, single point]. For O=C1C=C(NCc2ccco2)C2(CCCCC2)O1, the Potency was inconclusive: 3.16 µM [inhibitor, partial curve, poor fit]. With COc1ccc(-c2noc(-c3ccc(N4CCN(c5ccc(OC)cc5)CC4)c([N+](=O)[O-])c3)n2)cc1 the Potency was “inactive”. With CCn1cc(CN2CCN(Cc3ccccc3)C(CCO)C2)c2ccccc21 (stereo unspecified) the Potency was inconclusive: 3.16 µM [inhibitor, single point]. For CCC(=O)Nc1ccc2c(c1)ncn2-c1ccccc1C, the Potency was inconclusive: 1 µM [inhibitor, full curve, poor fit]. With CC(C)(C)c1ccccc1OCCCCCn1ccnc1 the Potency was inconclusive: 35.5 µM [inhibitor, single point]. For CCn1ccnc1CN(C)Cc1cn(-c2ccccc2)nc1-c1ccc(OC)cc1F, the Potency was inconclusive: 35.5 µM [inhibitor, single point]. For Oc1ccc2ccccc2c1CN1CCN(c2ccccc2F)CC1, the Potency was “inactive”. With CC(C)(C)C(=O)/C=c1\[nH]c(=O)/c(=C\c2ccccc2F)s1 the Potency was inconclusive: 3.16 µM [inhibitor, single point]. In the case of Cc1cccc2sc(N(CCCN(C)C)C(=O)c3ccc(S(=O)(=O)N4CCc5ccccc5C4)cc3)nc12, the Potency is reported as inconclusive: 22.4 µM [inhibitor, single point]. In the case of CCOC(=O)c1c(NC(=O)CN2C(=O)NC3(CCCCC3C)C2=O)sc(C)c1CC (stereo unspecified), the Potency is reported as inconclusive: 11.2 µM [inhibitor, partial curve, poor fit]. In the case of COc1cccc2nc3cc(C)c(C)cc3nc12, the Potency is reported as “inactive”. In the case of Cc1[nH]c2ccccc2c1/C=C/C(=O)c1ccncc1, the Potency is reported as inconclusive: 0.562 µM [inhibitor, full curve, poor fit]. In the case of CCN(CC)S(=O)(=O)c1ccc(NCCCn2ccnc2)c([N+](=O)[O-])c1, the Potency is reported as “inactive”. In the case of C=C1CC(C(=O)N/N=C/c2ccc(O)cc2)C1, the Potency is reported as inconclusive: 10 µM [inhibitor, partial curve, poor fit]. In the case of N#C/C(=C/c1ccc(-c2ccccc2)o1)c1nc(-c2cccs2)cs1, the Potency is reported as inconclusive: 7.08 µM [inhibitor, partial curve, poor fit]. With CCOC(=O)N1CCN(S(=O)(=O)c2ccc(C(=O)NNc3nc4c(C)cccc4s3)cc2)CC1 the Potency was “inactive”. With CCN(CC(=O)Nc1ccccc1SC)Cc1nc2ccccc2c(=O)[nH]1 the Potency was inconclusive: 0.562 µM [inhibitor, partial curve, poor fit]. With CN(c1ncc(C(F)(F)F)cc1Cl)N1C(=O)c2cccc(N)c2C1=O the Potency was inconclusive: 35.5 µM [inhibitor, partial curve, poor fit]. For O=C(NN1C(=O)CSC1=S)C(=O)NN1C(=O)CSC1=S, the Potency was inconclusive: 5.62 µM [inhibitor, partial curve, poor fit]. In the case of CC(C)(C)c1cc[n+](-c2[nH]c(=O)sc2/C=N/NC([S-])=Nc2ccccc2)cc1, the Potency is reported as inconclusive: 35.5 µM [inhibitor, single point]. With CCC1(C)Cc2c(sc3[nH]c(=S)n(Cc4ccccc4)c(=O)c23)CO1 (stereo unspecified) the Potency was inconclusive: 11.2 µM [inhibitor, partial curve]. In the case of COc1ccc(C(C(=O)NC2CCCC2)N(C(=O)c2snc(C(N)=O)c2N)c2cc(C)ccc2OC)cc1OC (stereo unspecified), the Potency is reported as “inactive”. With CC(=O)Nc1ccc(SCC(=O)NC(=O)c2ccccc2Br)cc1 the Potency was “inactive”. In the case of Cc1nn(CC(=O)NCc2cccc(Br)c2)c(=O)c2c1sc1ccccc12, the Potency is reported as inconclusive: 10 µM [inhibitor, partial curve, poor fit]. In the case of COc1cc(NC(=O)c2ccc(Cl)cc2)c2ncccc2c1, the Potency is reported as inconclusive: 25.1 µM [inhibitor, single point]. For CCCNC(=O)CN1C(=O)COc2ccc(S(=O)(=O)N3CC(C)CC(C)C3)cc21 (stereo unspecified), the Potency was inconclusive: 25.1 µM [inhibitor, single point]. With COc1cccc(/C=C(/C#N)c2nc3ccccc3[nH]2)c1OC(C)C(=O)O (stereo unspecified) the Potency was “inactive”. For O=C(O)c1ccc(N=NN2CCCC2)cc1, the Potency was inconclusive: 0.562 µM [inhibitor, full curve, poor fit]. In the case of COc1cccc(CNC(=O)c2sc3nc4n(c(=O)c3c2C)CCC4)c1, the Potency is reported as “inactive”. In the case of O=C(Nc1ccc(-c2nc3ccccc3s2)c(O)c1)C1=COCCO1, the Potency is reported as inconclusive: 8.91 µM [inhibitor, partial curve, poor fit]. With O=C1CSc2ccc(S(=O)(=O)NCc3ccccc3Cl)cc2N1 the Potency was “inactive”. In the case of COc1cc(S(=O)(=O)Nc2ccc(C)cc2)ccc1N=Cc1c(C)c(C#N)c(=O)n(C)c1O, the Potency is reported as “inactive”. In the case of CCc1cc(C(=O)NNC(=O)CCl)sc1C, the Potency is reported as “inactive”. For CC(OC(=O)c1cc(O)c2ccccc2c1O)C(=O)Nc1ccc(C(N)=O)cc1 (stereo unspecified), the Potency was inconclusive: 35.5 µM [inhibitor, single point]. With N#CC1=C(N)Oc2cc(N)ccc2C1c1ccc(F)cc1F (stereo unspecified) the Potency was active: 22.4 µM. With CC(C)c1onc(C(=O)NCc2ccccn2)c1[N+](=O)[O-] the Potency was inconclusive: 2.82 µM [inhibitor, single point]. With CN(C)S(=O)(=O)c1ccc(C(=O)Nc2nnc(-c3cccs3)o2)cc1 the Potency was inconclusive: 5.62 µM [inhibitor, single point]. With Cc1cccc(C(=O)NNC(=O)c2c(O)c3ccccc3n(C)c2=O)c1 the Potency was inconclusive: 17.8 µM [inhibitor, single point]. With CCOC(=O)c1c(NC(=S)Nc2ccc(OCC)cc2)sc2c1CCN(C)C2 the Potency was inconclusive: 35.5 µM [inhibitor, single point]. In the case of CCc1cccc2c(C(=O)CSc3nnc(C4CC4)o3)c[nH]c12, the Potency is reported as “inactive”. With Cc1ccc2nc(N3CCN(c4cccc(C(F)(F)F)c4)CC3)c3nnnn3c2c1 the Potency was inconclusive: 3.55 µM [inhibitor, partial curve, poor fit]. With Oc1ccccc1/C=N/Nc1ccnc(SCc2ccccc2)n1 the Potency was inconclusive: 3.16 µM [inhibitor, partial curve, poor fit]. In the case of CCSc1nc2ccccc2n1C(=O)/C=C/c1ccc(OC)c(OC)c1, the Potency is reported as “inactive”. With N#C/C(=C\C=C\c1ccccc1)C(=O)Nc1ccccc1 the Potency was inconclusive: 5.62 µM [inhibitor, single point]. In the case of C1=C(c2ccc(-c3ccccc3)cc2)Nc2ncnn2C1c1ccco1 (stereo unspecified), the Potency is reported as inconclusive: 2.51 µM [inhibitor, partial curve, poor fit]. For Nc1cc2nc3ccccc3oc-2cc1=O, the Potency was inconclusive: 31.6 µM [inhibitor, single point]. In the case of Cc1ccc(NC(=O)Cn2c(O)c(N=NC(N)=S)c3ccccc32)cc1, the Potency is reported as inconclusive: 5.62 µM [inhibitor, single point]. In the case of Cc1c(C(=O)NC(=S)N(Cc2ccccc2)c2ccccn2)cccc1[N+](=O)[O-], the Potency is reported as inconclusive: 2.51 µM [inhibitor, partial curve, poor fit]. With N#C/C(=C/c1ccc(-c2ccc(S(N)(=O)=O)cc2)o1)c1nc2ccccc2s1 the Potency was inconclusive: 2.24 µM [inhibitor, full curve, poor fit]. For Cc1cccc(-n2c(O)c(C=Nc3cc(O)ccc3C)c3ccccc3c2=O)n1, the Potency was inconclusive: 17.8 µM [inhibitor, partial curve, poor fit]. With O=C(NC(=S)Nn1cnnc1)c1ccccc1Cl the Potency was inconclusive: 3.55 µM [inhibitor, partial curve, poor fit]. For CCN(CC(=O)Nc1ccc(NC(C)=O)cc1)C(=O)CCCSc1nc2ccccc2[nH]1, the Potency was inconclusive: 2 µM [inhibitor, partial curve, poor fit].
